One data set concerns the target Klf4-GFP (Homo sapiens) (UniProt O43474). Description: EMSA. The following applies: poly-d(IC) 37.5 ng, Kd value not in material.
In data set [1] the target is MBP-Klf4-GFP (Homo sapiens) (UniProt O43474). Description: EMSA. The following applies: poly-d(IC) 37.5 ng, Kd value not in material.

The chains behind the UniProt entries cited, without tags or fusion partners. Where a name states a change or a piece, a line headed by the entry shows the natural chain unless it says otherwise.
UniProt O43474: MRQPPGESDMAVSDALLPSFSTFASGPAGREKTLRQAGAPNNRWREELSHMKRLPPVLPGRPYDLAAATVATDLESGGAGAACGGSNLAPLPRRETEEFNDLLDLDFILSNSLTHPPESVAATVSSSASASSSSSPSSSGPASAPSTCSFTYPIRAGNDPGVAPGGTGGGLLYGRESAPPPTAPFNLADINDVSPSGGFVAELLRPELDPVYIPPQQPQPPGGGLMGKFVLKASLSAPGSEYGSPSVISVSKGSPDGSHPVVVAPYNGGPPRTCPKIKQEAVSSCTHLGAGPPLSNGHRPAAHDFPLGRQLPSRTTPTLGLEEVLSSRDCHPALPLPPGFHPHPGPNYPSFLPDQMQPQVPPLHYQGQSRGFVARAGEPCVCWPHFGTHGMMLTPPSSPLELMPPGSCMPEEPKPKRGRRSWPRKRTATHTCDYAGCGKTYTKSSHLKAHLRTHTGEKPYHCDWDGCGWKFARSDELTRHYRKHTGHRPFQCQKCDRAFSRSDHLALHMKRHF

Experimental findings from doi:10.1101/2020.09.24.311712 are described below.

The exact form of at least one protein or probe is not confirmed. Weaker means in comparison with the reference protein, sequence or condition of that experiment. At least one verdict rests on a figure or table, not on a statement of the authors.

With “CCGCTCTCGGATCGGGC (double strand) [Klf4 unspecific dsDNA EMSA]”, the binding result (with Klf4-GFP (Homo sapiens); in data set [1]) was “binds more weakly” throughout.
